Laboratory results published in patent US5622965A, “4-hydroxy-3-nitro-1,2-dihydroquinolin-2-ones and the use thereof as excitatory amino acid and glycine receptor antagonists” (priority 1993, dated 1997).
At least one compound was matched to its structure with a doubt left.

Tested on: glycine/NMDA receptor
Assay: 1 μM glycine-stimulated [3H]-MK801 binding assay (glycine/NMDA receptor)
Set-up: species or system rat
Conditions: % of DCK
Protocol: This assay takes advantage of the fact that the binding of [^3 H]-MK801 to the PCP receptor inside the pore of the NMDA channel is dependent on the presence of both glutamate and glycine. In the absence of glycine but in the presence of glutamate, [^3 H]-MK801 cannot bind effectively to the PCP receptor, because the NMDA channel remains closed and access of [^3 H]-MK801 to the PCP receptor inside the closed channel pore is severely restricted.
The assay is conducted using rat brain membrane homogenates which are enriched in NMDA receptors. The membranes are prepared as follows. Frozen rat brains obtained from Pel-Freez, Rogers, Arkansas) are homogenized in 15 volumes (w/v) of ice cold 0.32M sucrose. The homogenate is spun at 1,000×g for ten minutes. […] The final pellet is suspended in three volumes of 50 mM HEPES, pH 7.4 and the protein concentration is determined with a standard dye-binding protein assay (Bio-Rad, Richmond, Calif.). […]
Nonspecific binding is defined as the […] presence of PCP (final concentration: 100 μM). To determine the effect of 1 μM glycine on the binding of [3H]-MK801, bound radioactivity in the presence of 10 μM glutamate alone (final concentration) is subtracted from the bound radioactivity in the presence of both 10 μM glummate and 1 μM glycine (final concentration). […]

O=c1[nH]c2ccccc2[nH]c1=O [QX, quinoxalinedione]
potency relative to 5,7-dichlorokynurenic acid (DCK): 2%
